{"source": "PubChem BioAssay AID1159584 | Peter MacCallum Cancer Centre – 2016", "aim": "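Genes that CDH1-null MCF10A cells selectively depend on to survive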 (primary screen)", "cell system": "human MCF10A breast epithelial cells, parental and CDH1-null", "knock-down reagent": "siRNA against human genes", "measured": "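Cell viability by CellTiter-Glo ATP luminescence, each line scaled to the mean of mock wells across plates, then CDH1-null over parental ratio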", "scale": "CDH1-null / parental viability ratio: higher = CDH1-null cells survive relatively better than parental; CDH1-null viability vs mock: higher = more viable CDH1-null cells", "note": "This is a random part of about 18,000 deposited reagents. Further read-outs or replicates are left out here. Not given: the amount of reagent, the time to read-out."}
{"gene knocked down":"IGSF22 (immunoglobulin superfamily member 22)","CDH1-null / parental viability ratio":0.9,"CDH1-null viability vs mock (fraction of mock)":1.07}
{"gene knocked down":"OR2T6 (olfactory receptor family 2 subfamily T member 6)","CDH1-null / parental viability ratio":1.07,"CDH1-null viability vs mock (fraction of mock)":0.94}
{"gene knocked down":"CHCHD7 (coiled-coil-helix-coiled-coil-helix domain containing 7)","CDH1-null / parental viability ratio":0.82,"CDH1-null viability vs mock (fraction of mock)":0.64}
{"gene knocked down":"FRYL (FRY like transcription coactivator)","CDH1-null / parental viability ratio":0.94,"CDH1-null viability vs mock (fraction of mock)":0.98}
{"gene knocked down":"PLA2G12A (phospholipase A2 group XIIA)","CDH1-null / parental viability ratio":0.84,"CDH1-null viability vs mock (fraction of mock)":0.73}
{"gene knocked down":"PSMG1 (proteasome assembly chaperone 1)","CDH1-null / parental viability ratio":0.84,"CDH1-null viability vs mock (fraction of mock)":0.81}
{"gene knocked down":"FDX1 (ferredoxin 1)","CDH1-null / parental viability ratio":0.91,"CDH1-null viability vs mock (fraction of mock)":0.97}
{"gene knocked down":"MRO (maestro)","CDH1-null / parental viability ratio":1.13,"CDH1-null viability vs mock (fraction of mock)":1.02}
{"gene knocked down":"AGTRAP (angiotensin II receptor associated protein)","CDH1-null / parental viability ratio":1.48,"CDH1-null viability vs mock (fraction of mock)":0.89}
{"gene knocked down":"ABHD18 (abhydrolase domain containing 18)","CDH1-null / parental viability ratio":1.04,"CDH1-null viability vs mock (fraction of mock)":1.06}
{"gene knocked down":"CAPN6 (calpain 6)","CDH1-null / parental viability ratio":0.95,"CDH1-null viability vs mock (fraction of mock)":0.78}
{"gene knocked down":"KRT16 (keratin 16)","CDH1-null / parental viability ratio":0.88,"CDH1-null viability vs mock (fraction of mock)":0.76}
{"gene knocked down":"USP36 (ubiquitin specific peptidase 36)","CDH1-null / parental viability ratio":1.04,"CDH1-null viability vs mock (fraction of mock)":0.85}
{"gene knocked down":"SOX17 (SRY-box transcription factor 17)","CDH1-null / parental viability ratio":1.01,"CDH1-null viability vs mock (fraction of mock)":1.05}
{"gene knocked down":"BASP1 (brain abundant membrane attached signal protein 1)","CDH1-null / parental viability ratio":0.95,"CDH1-null viability vs mock (fraction of mock)":0.58}
{"gene knocked down":"CCDC15 (coiled-coil domain containing 15)","CDH1-null / parental viability ratio":0.84,"CDH1-null viability vs mock (fraction of mock)":0.74}
{"gene knocked down":"ITPK1 (inositol-tetrakisphosphate 1-kinase)","CDH1-null / parental viability ratio":0.55,"CDH1-null viability vs mock (fraction of mock)":0.42}
{"gene knocked down":"FAM107B (family with sequence similarity 107 member B)","CDH1-null / parental viability ratio":0.72,"CDH1-null viability vs mock (fraction of mock)":0.46}
{"gene knocked down":"CYGB (cytoglobin)","CDH1-null / parental viability ratio":0.94,"CDH1-null viability vs mock (fraction of mock)":0.6}
{"gene knocked down":"SYTL5 (synaptotagmin like 5)","CDH1-null / parental viability ratio":1.02,"CDH1-null viability vs mock (fraction of mock)":0.54}
{"gene knocked down":"PPP1R1C (protein phosphatase 1 regulatory inhibitor subunit 1C)","CDH1-null / parental viability ratio":1.6,"CDH1-null viability vs mock (fraction of mock)":0.83}
{"gene knocked down":"ATG13 (autophagy related 13)","CDH1-null / parental viability ratio":1.04,"CDH1-null viability vs mock (fraction of mock)":0.56}
{"gene knocked down":"UGT2A1 (UDP glucuronosyltransferase family 2 member A1 complex locus)","CDH1-null / parental viability ratio":0.91,"CDH1-null viability vs mock (fraction of mock)":0.86}
{"gene knocked down":"SHISA5 (shisa family member 5)","CDH1-null / parental viability ratio":0.63,"CDH1-null viability vs mock (fraction of mock)":0.34}
{"gene knocked down":"HOXA4 (homeobox A4)","CDH1-null / parental viability ratio":0.9,"CDH1-null viability vs mock (fraction of mock)":0.74}
{"gene knocked down":"OPTN (optineurin)","CDH1-null / parental viability ratio":1.41,"CDH1-null viability vs mock (fraction of mock)":0.52}
{"gene knocked down":"A2M (alpha-2-macroglobulin)","CDH1-null / parental viability ratio":0.87,"CDH1-null viability vs mock (fraction of mock)":0.74}
{"gene knocked down":"PVRIG (PVR related immunoglobulin domain containing)","CDH1-null / parental viability ratio":0.79,"CDH1-null viability vs mock (fraction of mock)":0.73}
{"gene knocked down":"FABP4 (fatty acid binding protein 4)","CDH1-null / parental viability ratio":0.75,"CDH1-null viability vs mock (fraction of mock)":0.6}
{"gene knocked down":"TOR2A (torsin family 2 member A)","CDH1-null / parental viability ratio":0.71,"CDH1-null viability vs mock (fraction of mock)":0.44}
{"gene knocked down":"PLIN2 (perilipin 2)","CDH1-null / parental viability ratio":1.83,"CDH1-null viability vs mock (fraction of mock)":0.84}
{"gene knocked down":"ENKD1 (enkurin domain containing 1)","CDH1-null / parental viability ratio":0.83,"CDH1-null viability vs mock (fraction of mock)":0.97}
{"gene knocked down":"PSRC1 (proline and serine rich coiled-coil 1)","CDH1-null / parental viability ratio":1.04,"CDH1-null viability vs mock (fraction of mock)":0.81}
{"gene knocked down":"LRRC41 (leucine rich repeat containing 41)","CDH1-null / parental viability ratio":0.94,"CDH1-null viability vs mock (fraction of mock)":0.77}
{"gene knocked down":"CXorf65 (chromosome X open reading frame 65)","CDH1-null / parental viability ratio":1,"CDH1-null viability vs mock (fraction of mock)":0.98}
